In article PMC12583452:
No constants are given. Whether binding was seen depends on the method and setting. Binding seen in cells or lysates may run through a third protein. Some binding calls cover weakened binding; strength is not graded here.

By UniProt entry, the sequences of proteins in these tests, tags left out.
UniProt O94874: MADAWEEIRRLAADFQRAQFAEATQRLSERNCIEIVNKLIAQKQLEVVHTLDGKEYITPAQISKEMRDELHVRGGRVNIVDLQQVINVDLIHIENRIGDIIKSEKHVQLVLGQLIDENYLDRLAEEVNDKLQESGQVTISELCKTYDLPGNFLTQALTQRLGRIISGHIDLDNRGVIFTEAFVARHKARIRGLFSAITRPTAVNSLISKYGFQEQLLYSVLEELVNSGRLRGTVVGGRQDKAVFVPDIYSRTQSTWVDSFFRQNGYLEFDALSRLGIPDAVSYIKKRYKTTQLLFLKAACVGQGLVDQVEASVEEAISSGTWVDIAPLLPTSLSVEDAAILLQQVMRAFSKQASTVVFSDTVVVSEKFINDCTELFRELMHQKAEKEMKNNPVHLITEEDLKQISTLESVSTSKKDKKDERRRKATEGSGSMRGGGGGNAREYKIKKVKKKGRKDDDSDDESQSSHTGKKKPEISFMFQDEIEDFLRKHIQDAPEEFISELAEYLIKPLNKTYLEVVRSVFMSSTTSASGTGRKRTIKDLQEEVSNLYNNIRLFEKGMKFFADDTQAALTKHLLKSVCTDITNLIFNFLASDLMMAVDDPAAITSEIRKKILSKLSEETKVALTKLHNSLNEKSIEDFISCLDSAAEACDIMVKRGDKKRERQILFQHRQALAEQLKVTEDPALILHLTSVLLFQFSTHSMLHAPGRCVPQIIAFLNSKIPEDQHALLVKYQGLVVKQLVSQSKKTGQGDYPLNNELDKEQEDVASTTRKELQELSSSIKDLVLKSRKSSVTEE
UniProt P49736: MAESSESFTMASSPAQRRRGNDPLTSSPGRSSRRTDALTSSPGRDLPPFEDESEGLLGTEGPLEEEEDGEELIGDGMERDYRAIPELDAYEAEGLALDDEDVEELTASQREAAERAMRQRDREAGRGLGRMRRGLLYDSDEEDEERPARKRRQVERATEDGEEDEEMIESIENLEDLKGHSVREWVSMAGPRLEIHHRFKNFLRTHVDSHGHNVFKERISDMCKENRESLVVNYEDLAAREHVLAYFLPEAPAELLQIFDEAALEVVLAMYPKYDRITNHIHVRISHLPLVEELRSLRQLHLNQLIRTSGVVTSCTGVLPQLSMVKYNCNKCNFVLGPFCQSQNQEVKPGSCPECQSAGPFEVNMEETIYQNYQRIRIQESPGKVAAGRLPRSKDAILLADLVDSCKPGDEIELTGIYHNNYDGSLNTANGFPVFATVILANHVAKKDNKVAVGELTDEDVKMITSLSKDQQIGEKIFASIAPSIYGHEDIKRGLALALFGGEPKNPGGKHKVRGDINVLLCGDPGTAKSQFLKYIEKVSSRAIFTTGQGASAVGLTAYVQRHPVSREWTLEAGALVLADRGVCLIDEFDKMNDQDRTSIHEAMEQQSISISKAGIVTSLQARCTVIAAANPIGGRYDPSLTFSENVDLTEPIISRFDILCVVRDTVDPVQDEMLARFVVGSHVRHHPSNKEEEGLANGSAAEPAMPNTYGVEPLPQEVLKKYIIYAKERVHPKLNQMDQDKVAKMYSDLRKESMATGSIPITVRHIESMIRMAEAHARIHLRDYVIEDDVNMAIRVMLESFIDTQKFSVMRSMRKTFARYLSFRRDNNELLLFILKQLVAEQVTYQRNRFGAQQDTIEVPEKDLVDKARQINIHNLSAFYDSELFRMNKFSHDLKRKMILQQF

Molecular target: UFL1 (endogenous, HEK293T) (human (endogenous in HEK293T)) (UniProt O94874)
Assay: co-IP; endogenous; HEK293T cell lysates precipitated with an anti-UFL1 antibody or control IgG, western blot

## MCM2 (endogenous, HEK293T) (from UniProt P49736 1-904)
  binding: binds
